The list shows a part of the results.

Chains of the proteins cited; added tags and fusions are not shown. Lines headed by an entry give the natural chain unless they say otherwise; changes in a name come on top.
UniProt O60347: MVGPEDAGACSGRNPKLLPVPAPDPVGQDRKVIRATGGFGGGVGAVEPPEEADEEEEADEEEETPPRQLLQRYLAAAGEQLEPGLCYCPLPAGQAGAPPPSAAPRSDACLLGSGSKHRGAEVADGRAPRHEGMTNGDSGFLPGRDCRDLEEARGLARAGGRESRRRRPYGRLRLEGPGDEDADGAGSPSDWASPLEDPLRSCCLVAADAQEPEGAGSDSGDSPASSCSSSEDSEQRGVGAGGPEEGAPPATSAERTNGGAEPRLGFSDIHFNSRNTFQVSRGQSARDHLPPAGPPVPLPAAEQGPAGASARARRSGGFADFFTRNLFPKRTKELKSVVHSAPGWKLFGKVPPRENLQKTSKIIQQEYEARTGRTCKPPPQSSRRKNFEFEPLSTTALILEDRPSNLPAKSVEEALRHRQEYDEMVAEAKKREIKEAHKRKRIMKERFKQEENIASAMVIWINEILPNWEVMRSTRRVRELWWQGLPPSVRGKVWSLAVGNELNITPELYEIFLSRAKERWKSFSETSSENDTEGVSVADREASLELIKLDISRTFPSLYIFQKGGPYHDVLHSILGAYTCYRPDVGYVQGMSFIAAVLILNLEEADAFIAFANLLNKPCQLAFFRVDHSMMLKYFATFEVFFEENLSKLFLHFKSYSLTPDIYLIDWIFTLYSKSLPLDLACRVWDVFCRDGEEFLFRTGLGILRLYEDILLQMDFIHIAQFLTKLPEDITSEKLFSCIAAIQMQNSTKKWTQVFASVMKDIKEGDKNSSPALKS
UniProt Q96C24: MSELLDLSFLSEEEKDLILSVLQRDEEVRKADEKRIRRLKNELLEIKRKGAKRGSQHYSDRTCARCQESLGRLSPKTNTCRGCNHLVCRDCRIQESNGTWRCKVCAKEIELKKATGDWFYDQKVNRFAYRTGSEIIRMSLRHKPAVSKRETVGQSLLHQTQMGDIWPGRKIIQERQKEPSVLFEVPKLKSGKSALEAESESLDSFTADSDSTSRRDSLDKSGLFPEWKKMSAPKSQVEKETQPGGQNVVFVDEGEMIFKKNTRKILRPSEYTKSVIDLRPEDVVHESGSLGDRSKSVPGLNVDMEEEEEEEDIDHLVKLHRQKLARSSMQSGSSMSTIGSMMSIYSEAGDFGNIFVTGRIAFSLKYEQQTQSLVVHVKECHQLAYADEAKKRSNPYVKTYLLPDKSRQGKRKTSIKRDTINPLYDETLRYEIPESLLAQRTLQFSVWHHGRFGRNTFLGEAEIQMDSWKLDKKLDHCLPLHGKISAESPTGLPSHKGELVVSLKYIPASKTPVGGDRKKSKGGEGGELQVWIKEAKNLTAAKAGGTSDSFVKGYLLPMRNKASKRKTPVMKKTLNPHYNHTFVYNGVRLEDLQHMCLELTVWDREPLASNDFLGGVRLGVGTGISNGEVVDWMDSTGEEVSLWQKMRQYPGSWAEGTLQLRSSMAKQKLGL
UniProt Q9H6P5: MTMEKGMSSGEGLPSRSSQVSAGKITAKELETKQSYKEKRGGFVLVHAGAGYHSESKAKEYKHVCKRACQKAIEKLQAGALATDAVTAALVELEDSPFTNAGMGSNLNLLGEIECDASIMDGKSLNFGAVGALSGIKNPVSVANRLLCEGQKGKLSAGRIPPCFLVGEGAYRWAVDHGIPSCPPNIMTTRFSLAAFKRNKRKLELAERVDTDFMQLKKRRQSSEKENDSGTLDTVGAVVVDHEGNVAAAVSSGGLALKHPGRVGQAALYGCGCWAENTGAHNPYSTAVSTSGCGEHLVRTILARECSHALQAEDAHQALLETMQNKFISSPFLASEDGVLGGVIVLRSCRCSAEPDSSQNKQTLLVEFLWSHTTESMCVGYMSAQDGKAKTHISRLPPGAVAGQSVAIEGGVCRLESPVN
UniProt Q15544, whole entry, looked up: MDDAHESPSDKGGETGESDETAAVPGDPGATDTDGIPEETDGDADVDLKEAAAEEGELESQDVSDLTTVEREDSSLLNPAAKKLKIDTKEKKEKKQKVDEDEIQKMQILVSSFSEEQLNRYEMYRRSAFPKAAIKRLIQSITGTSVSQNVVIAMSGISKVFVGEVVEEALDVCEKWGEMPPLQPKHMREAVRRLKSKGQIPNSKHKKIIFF
UniProt Q16514: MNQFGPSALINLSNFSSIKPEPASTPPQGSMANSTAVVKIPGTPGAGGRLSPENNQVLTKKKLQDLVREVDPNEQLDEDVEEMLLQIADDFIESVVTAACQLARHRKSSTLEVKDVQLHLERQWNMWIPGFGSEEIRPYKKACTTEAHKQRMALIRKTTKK
UniProt Q8NBK3: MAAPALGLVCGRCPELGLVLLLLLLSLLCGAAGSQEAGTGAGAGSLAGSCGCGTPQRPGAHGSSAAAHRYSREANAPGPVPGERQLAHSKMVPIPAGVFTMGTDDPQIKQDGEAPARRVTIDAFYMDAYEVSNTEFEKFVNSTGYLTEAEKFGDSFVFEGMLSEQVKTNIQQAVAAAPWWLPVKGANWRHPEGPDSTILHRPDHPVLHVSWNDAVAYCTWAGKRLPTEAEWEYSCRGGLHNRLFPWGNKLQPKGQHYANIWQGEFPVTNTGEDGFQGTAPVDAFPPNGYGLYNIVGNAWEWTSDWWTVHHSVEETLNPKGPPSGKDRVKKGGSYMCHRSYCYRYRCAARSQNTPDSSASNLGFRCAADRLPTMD
UniProt Q8N300: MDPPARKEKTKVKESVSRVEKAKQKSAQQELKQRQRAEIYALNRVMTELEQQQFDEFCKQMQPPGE
UniProt P49888: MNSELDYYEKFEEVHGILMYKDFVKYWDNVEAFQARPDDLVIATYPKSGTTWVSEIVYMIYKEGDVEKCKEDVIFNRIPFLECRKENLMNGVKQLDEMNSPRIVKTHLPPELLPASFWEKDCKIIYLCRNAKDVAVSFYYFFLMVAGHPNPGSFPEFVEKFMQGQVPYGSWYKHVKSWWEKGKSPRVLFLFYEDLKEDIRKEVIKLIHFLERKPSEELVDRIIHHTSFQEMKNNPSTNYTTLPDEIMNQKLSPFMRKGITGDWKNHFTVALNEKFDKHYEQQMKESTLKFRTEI
UniProt Q9Y2K9: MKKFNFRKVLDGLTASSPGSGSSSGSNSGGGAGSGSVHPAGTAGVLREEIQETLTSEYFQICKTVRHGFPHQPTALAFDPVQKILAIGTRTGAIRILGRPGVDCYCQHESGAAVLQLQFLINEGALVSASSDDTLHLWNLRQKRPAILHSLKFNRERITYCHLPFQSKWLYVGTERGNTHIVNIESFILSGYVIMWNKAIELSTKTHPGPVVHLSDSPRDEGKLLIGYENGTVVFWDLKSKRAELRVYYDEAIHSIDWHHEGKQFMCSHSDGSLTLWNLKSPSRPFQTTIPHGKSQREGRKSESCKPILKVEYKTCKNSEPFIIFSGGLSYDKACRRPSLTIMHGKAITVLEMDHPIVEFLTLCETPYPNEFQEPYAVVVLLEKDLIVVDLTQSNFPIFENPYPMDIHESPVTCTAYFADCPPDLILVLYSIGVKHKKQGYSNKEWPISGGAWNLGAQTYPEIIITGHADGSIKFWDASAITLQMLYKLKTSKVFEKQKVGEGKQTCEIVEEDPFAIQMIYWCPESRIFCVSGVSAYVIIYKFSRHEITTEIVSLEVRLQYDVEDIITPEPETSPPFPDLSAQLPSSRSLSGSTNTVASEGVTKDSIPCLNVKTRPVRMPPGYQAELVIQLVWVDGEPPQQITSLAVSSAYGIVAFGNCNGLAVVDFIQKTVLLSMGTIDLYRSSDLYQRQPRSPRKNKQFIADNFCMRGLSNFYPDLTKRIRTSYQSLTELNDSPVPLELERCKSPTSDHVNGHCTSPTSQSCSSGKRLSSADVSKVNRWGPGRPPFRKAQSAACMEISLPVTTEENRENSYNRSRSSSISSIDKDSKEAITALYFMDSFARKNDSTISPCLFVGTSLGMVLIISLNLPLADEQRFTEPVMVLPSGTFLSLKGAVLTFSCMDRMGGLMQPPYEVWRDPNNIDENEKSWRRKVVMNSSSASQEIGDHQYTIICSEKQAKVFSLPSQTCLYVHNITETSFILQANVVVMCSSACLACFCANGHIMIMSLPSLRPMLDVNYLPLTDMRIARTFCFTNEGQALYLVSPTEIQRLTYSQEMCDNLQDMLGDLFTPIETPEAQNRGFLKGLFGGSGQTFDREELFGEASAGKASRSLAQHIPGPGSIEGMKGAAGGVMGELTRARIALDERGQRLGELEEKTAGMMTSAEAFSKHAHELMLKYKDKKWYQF
UniProt Q8WUJ0: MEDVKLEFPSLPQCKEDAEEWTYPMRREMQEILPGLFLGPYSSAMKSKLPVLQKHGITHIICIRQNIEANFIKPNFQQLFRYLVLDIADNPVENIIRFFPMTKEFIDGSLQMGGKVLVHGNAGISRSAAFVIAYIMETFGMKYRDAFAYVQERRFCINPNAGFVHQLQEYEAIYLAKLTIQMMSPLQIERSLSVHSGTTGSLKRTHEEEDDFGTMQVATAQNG
UniProt Q6P1N9: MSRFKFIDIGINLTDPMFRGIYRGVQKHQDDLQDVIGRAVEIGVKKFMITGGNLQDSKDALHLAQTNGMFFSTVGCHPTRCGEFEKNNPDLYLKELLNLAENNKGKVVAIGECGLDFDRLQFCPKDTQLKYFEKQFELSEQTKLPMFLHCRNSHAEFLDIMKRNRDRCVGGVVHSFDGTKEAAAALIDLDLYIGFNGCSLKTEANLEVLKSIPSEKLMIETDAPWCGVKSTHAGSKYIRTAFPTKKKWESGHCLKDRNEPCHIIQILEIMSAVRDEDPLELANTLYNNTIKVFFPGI
UniProt Q96BN2: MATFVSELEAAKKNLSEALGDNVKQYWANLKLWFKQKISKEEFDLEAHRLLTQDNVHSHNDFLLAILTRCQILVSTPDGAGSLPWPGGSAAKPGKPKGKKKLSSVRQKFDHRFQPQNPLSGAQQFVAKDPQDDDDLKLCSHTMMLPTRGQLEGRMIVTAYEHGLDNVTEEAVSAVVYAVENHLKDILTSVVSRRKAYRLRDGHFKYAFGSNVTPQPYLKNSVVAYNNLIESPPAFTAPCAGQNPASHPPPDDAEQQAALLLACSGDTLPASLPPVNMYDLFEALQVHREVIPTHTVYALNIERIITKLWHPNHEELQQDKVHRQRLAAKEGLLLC
UniProt Q01995: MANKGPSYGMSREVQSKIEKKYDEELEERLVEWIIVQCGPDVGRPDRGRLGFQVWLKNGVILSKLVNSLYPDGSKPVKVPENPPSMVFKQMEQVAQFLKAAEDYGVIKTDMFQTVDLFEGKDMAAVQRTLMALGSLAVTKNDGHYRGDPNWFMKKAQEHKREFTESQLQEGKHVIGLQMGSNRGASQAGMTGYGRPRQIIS
UniProt Q15542, whole entry, looked up: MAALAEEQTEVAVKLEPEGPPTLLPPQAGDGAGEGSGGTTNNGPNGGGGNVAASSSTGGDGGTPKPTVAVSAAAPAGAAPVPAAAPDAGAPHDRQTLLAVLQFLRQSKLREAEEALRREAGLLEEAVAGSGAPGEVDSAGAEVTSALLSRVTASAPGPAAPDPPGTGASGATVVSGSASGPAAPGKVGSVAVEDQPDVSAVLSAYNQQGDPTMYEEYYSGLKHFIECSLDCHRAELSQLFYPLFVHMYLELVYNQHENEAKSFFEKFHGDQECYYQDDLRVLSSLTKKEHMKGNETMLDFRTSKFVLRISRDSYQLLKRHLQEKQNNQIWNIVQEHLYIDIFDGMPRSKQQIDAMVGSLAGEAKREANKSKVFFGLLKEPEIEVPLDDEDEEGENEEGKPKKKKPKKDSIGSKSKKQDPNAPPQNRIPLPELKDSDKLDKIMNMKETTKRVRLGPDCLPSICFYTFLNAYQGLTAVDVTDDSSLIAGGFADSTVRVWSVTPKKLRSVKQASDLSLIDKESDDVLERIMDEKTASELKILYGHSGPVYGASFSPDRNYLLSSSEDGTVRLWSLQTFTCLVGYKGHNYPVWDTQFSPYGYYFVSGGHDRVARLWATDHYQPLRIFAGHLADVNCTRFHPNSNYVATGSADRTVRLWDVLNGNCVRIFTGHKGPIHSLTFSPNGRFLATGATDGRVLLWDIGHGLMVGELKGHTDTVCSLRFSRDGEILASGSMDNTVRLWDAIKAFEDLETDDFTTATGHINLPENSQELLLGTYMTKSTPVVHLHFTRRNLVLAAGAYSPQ
UniProt Q9UMX1: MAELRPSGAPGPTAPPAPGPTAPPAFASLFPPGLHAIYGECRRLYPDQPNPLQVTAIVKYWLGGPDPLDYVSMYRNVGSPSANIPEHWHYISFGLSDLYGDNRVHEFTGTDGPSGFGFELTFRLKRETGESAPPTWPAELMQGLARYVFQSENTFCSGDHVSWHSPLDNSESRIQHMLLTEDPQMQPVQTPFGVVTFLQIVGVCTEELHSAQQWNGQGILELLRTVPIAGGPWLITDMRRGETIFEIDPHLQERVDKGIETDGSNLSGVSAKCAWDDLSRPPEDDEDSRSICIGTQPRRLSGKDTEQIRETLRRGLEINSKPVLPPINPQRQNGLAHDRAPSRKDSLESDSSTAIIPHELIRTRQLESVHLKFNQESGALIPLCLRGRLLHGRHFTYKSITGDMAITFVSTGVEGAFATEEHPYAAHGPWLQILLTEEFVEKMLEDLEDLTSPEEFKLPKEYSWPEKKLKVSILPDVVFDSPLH

We go through 26 targets from the supplement of paper PMC10849652.

Compound in one test: CCCc1cc(C)[nH]c(=O)c1CNC(=O)c1cc(-c2ccnc(N3CCN(C)CC3)c2)cc2c1cnn2C(C)C
The test can be described thus: log2 fold change, soluble protein after heating vs DMSO (PISA); higher = thermal stabilisation; K562 cells, 10 uM, 30 min; active = over 0.2 and 3.5 SD of the protein, either way, in both replicates (recomputed). A digest of the protocol: (§1)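 Aliquots of K562 cells (2×10^6 cells/mL) treated with 10 μM compound for 30 min were heated for 3 min over 48°C-58°C. After pooling and extraction in PBS with 0.5% NP-40 at 4°C, soluble protein from a 21,000xg, 90 min spin was quantified by TMTpro 16plex LC-MS/MS with channel sums equalised. Thermal stability is expressed against control samples, from duplicates, as a log2 fold change.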
TAOK2 (UniProt Q9UL54): the log2 fold change is inactive: 0.007.

Take STRIP2 (UniProt Q9ULQ0): the log2 fold change was inactive: -0.026.

Take TAF6L (UniProt Q9Y6J9): the log2 fold change was inactive: 0.091.

As for TBC1D12 (UniProt O60347), the log2 fold change was inactive: 0.

Consider SUN1 isoform 9 (UniProt O94901), for which the log2 fold change is inactive: 0.037.

Consider SUCO (UniProt Q9UBS9), for which the log2 fold change is inactive: 0.533.

Turning to SYTL4 (UniProt Q96C24), the log2 fold change was inactive: 0.162.

Turning to TACC2 (UniProt O95359), the log2 fold change is inactive: -0.085.

For STK36 (UniProt Q9NRP7), the log2 fold change was inactive: -0.516.

Take TASP1 (UniProt Q9H6P5): the log2 fold change was inactive: -0.09.

Take TAF11 (UniProt Q15544): the log2 fold change is inactive: 0.067.

In the case of TAF13 (UniProt Q15543), the log2 fold change is inactive: 0.027.

As for TAF12 (UniProt Q16514), the log2 fold change was inactive: 0.041.

Turning to SUMF1 isoform 3 (UniProt Q8NBK3), the log2 fold change is inactive: 0.115.

As for SUZ12 (UniProt Q15022), the log2 fold change was inactive: 0.23.

On to SVBP (UniProt Q8N300), for which the log2 fold change was inactive: -0.026.

Take STK35 (UniProt Q8TDR2): the log2 fold change was inactive: 0.046.

Compound in the next test: CCN(CC)Cc1ccc2cc(COC(=O)Nc3ccc(C(=O)NO)cc3)ccc2c1 [givinostat]
The test is described as above. A digest of the protocol: as §1
Consider SULT1E1 (UniProt P49888), for which the log2 fold change was inactive: -0.027.

On to TAOK2 (UniProt Q9UL54), for which the log2 fold change was inactive: -0.363.

Regarding STRIP2 (UniProt Q9ULQ0), the log2 fold change is inactive: 0.072.

For the target TAF6L (UniProt Q9Y6J9), the log2 fold change is inactive: 0.075.

Consider TBC1D12 (UniProt O60347), for which the log2 fold change is inactive: -0.034.

SUN1 isoform 9 (UniProt O94901): the log2 fold change is inactive: 0.078.

SUCO (UniProt Q9UBS9): the log2 fold change was inactive: 0.184.

SYTL4 (UniProt Q96C24): the log2 fold change was inactive: 0.101.

As for STXBP5L (UniProt Q9Y2K9), the log2 fold change is inactive: -0.003.

With TACC2 (UniProt O95359), the log2 fold change was active: -0.284.

STK36 (UniProt Q9NRP7): the log2 fold change is inactive: -0.077.

As to TASP1 (UniProt Q9H6P5), the log2 fold change was inactive: -0.205.

STYX (UniProt Q8WUJ0): the log2 fold change is inactive: 0.082.

For the target SYS1 (UniProt Q8N2H4), the log2 fold change is inactive: -0.069.

For TAF11 (UniProt Q15544), the log2 fold change was inactive: 0.039.

As to TATDN1 isoform 2 (UniProt Q6P1N9), the log2 fold change is inactive: 0.112.

Consider TAF12 (UniProt Q16514), for which the log2 fold change is inactive: 0.018.

In the case of TADA1 (UniProt Q96BN2), the log2 fold change was inactive: 0.206.

As for TAGLN (UniProt Q01995), the log2 fold change was inactive: 0.103.

SUMF1 isoform 3 (UniProt Q8NBK3): the log2 fold change is inactive: -0.251.

On to TAF5 (UniProt Q15542), for which the log2 fold change was inactive: -0.229.

With SUFU (UniProt Q9UMX1), the log2 fold change was inactive: -0.024.
